# Source: PubChem BioAssay AID493246 (Drosophila RNAi Screening Center, 2011)
# Screen: 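Genes fly cells need to grow and stay alive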 (primary screen)
# Cell system: Drosophila Kc and S2R+ cells
# Reagent: long dsRNA against Drosophila genes
# Measured: 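Raw, unnormalised count of remaining cells in each well; per-plate z-scores of cell number underlie the calls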
# Reading the numbers: Kc cell number and S2R+ cell number: higher = more cells remaining
# Call rule: 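Counted as a hit if cell number falls by a z-score of at least 3 within its plate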
# The deposit covers about 21,000 reagents; shown is an unselected part of those that have a named target and a result. In the full data, 429 (2%) got an active call. 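Values are raw and not normalised between plates; calls rest on per-plate z-scores that were not deposited.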 Entries without a mark were called inactive. The numbers tell different reagents against one gene apart. A plus sign joins genes that one reagent is predicted to hit. No sequences are given here. The record does not give: the amount of reagent, the time to read-out.
gene knocked down,dsRNA no.,"Kc cell number, rep 1","Kc cell number, rep 2","S2R+ cell number, rep 1","S2R+ cell number, rep 2"
CG9997,1,1.43e6,1.46e6,1.03e6,1.14e6
MFS15,1,1.71e6,1.75e6,1.15e6,1.38e6
CG42299 + CG42300,1,1.51e6,1.54e6,1.03e6,1.14e6
CG42299 + CG42300,2,1.51e6,1.51e6,1.03e6,1.14e6
CG13700,1,1.40e6,1.53e6,1.30e6,1.41e6
Nsun5,1,1.57e6,1.66e6,1.27e6,1.28e6
rswl,1,1.39e6,1.45e6,1.21e6,1.25e6
yip7,1,1.56e6,1.53e6,1.06e6,1.20e6
ppan,1,1.56e6,1.65e6,8.93e5,8.68e5
CG31741,1,1.59e6,1.73e6,1.26e6,1.45e6
Blos4,1,1.36e6,1.68e6,1.18e6,1.29e6
CG9356,1,1.46e6,1.48e6,1.18e6,1.25e6
E(spl)malpha-BFM,1,1.75e6,1.71e6,9.26e5,1.03e6
CG14692,1,1.59e6,1.75e6,1.37e6,1.45e6
CG13723,1,1.68e6,1.62e6,1.35e6,1.52e6
CG34159,1,1.14e6,1.35e6,9.14e5,1.02e6
M6,1,1.41e6,1.67e6,1.26e6,1.31e6
CG17782,1,1.51e6,1.52e6,1.00e6,1.05e6
Ugt35C1,1,1.79e6,1.93e6,1.42e6,1.57e6
CG6262,1,1.37e6,1.46e6,7.54e5,8.90e5
CG3038,1,1.49e6,1.51e6,1.06e6,1.18e6
CG31269,1,1.38e6,1.35e6,1.12e6,1.29e6
ckd,1,1.48e6,1.32e6,1.04e6,1.35e6
CG14330,1,1.24e6,1.28e6,1.17e6,1.30e6
